Earlier results in US20100113392A1, “METHODS OF USING SAHA AND BORTEZOMIB FOR TREATING MULTIPLE MYELOMA” (priority 2006, published 2010).

Tested on: carcinogen-induced (N-methylnitrosourea) mammary tumors
Conditions: rats, SAHA in diet over the 130 days of the study; cited from earlier work

## O=C(CCCCCCC(=O)Nc1ccccc1)NO [Vorinostat, N-Hydroxy-N′-phenyl octanediamide]
  inhibition of development and growth of mammary tumors: effective at inhibiting the development and continued growth
